Experimental findings from article PMC8807876 are described below.

No constants are given. Whether binding was seen depends on the method and setting. In cells and extracts the contact can be indirect. Binding can be weak; no strength is given.

In this assay the target is T1, endogenous MTBP (human (endogenous in 293T)) (UniProt Q96DY7).
T1 sequence: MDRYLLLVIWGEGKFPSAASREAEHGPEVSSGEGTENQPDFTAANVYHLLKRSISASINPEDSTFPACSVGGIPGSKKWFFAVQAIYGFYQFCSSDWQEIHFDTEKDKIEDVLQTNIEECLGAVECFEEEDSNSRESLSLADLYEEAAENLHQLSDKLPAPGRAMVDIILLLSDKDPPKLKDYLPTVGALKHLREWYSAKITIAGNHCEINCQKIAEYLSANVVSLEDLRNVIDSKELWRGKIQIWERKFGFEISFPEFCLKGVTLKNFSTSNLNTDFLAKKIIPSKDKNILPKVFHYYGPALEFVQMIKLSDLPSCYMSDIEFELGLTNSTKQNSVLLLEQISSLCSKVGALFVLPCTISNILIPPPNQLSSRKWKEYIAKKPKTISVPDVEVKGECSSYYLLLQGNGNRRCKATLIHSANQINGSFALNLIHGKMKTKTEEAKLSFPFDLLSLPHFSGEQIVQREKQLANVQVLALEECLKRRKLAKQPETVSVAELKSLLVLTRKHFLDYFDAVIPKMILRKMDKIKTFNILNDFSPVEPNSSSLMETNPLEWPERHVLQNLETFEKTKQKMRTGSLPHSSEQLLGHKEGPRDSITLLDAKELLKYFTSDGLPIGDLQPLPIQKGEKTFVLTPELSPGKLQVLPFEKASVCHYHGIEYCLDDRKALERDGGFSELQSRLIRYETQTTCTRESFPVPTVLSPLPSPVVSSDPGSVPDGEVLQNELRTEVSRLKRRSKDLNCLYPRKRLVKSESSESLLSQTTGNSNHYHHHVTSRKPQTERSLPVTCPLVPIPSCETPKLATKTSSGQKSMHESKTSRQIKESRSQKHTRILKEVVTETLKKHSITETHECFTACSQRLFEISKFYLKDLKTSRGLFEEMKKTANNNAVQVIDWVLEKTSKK
Nature of the assay: co-IP; Fig 3B: N-terminally 3HA-tagged Treslin/TICRR fragments transiently transfected into 293T; IP of endogenous MTBP with rabbit anti-MTBP (amino acids 1-284) on protein G magnetic beads, control IgG IP; 20 mM Hepes, 200 mM NaCl, 10% glycerol, 0.1% Triton; anti-HA immunoblot. On the technique in general: In western blotting, separated proteins are transferred to a membrane and probed.
“3HA-Treslin/TICRR fragment with amino acids 487–517 deleted (human) (domain or fragment)”: the binding result is “binds”.

As for “3HA-Treslin/TICRR fragment with amino acids 518–543 deleted (human) (domain or fragment)”, the binding result is on record as “no binding”.

Consider “3HA-Treslin/TICRR fragment with amino acids 545–557 deleted (human) (domain or fragment)”, for which the binding result was “binds”.
